Results as given in the supplement of paper PMC10373366.
Some of the results follow. Repeats are few or missing, and single values can be far off.

Key:
[1] = tested on: A2780; experiment: cell growth inhibition ratio vs untreated control (CCK8); higher = stronger inhibition of cell viability; settings: 10 µM; 48 h
Description: (§1)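 Natural product library (Topscience) screened at 10 µM final concentration for 48 h on ovarian cancer A2780 cells and patient-derived ovarian cancer cells (PDC) in 96-well plates; viability read by CCK8 and reported as inhibition ratio (%) relative to untreated control. Single-dose primary screen.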

[2] = tested on: patient-derived ovarian cancer cells (PDC); experiment: as above; settings: 10 µM; 48 h
Description: as §1

Structure (SMILES)	cell growth inhibition ratio [1] [%]	cell growth inhibition ratio [2] [%]
COC(=O)c1c2c(c3ccccc3c1O)OC(C)(C)C=C2 [Mollugin]	-6.18	26.9
O=C(O)[C@H]1O[C@@H](Oc2cc3oc(-c4ccccc4)cc(=O)c3c(O)c2O)[C@H](O)[C@@H](O)[C@@H]1O [Baicalin]	11.7	-5.71
CC1CCC2(O)C(C)(C)C3CCC2(C)C1C3 (stereo unspecified) [Patchouli alcohol]	4.13	-3.96
